According to PubChem BioAssay AID1347076 (National Center for Advancing Translational Sciences (NCATS), 2019):
The campaign covered roughly 400,000 compounds. About 13,000 (3.2%) were called active. Inconclusive means that the source gave no clear call. Such entries were picked first, then a sample of the others. The call rests on the fitted dose curve; in most records, active means well fitted cell-killing curve with a large enough effect; inconclusive means small, poorly fitted or top-dose-only effect, or effect the other way; inactive means flat fitted curve, though single readings scatter. Where the call is inconclusive, the potency comes from a doubtful curve fit.

assay: qHTS assay for MDR1-selective chemotherapeutics: Primary screen using the drug-selected MDR subline cells KB-V1; details: KB-V1 MDR cells viability, CellTiter-Glo, 72 h; activity change, negative = cytotoxicity: at 46.1 µM (top of the series); further: nearly all actives have a fitted effect of over 60% in size
Method in brief: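 Following 72 h at 37 degrees C with compound, KB-V1 cell viability was read by CellTiter-Glo luminescence, medium being phenol-red-free DMEM plus 10% FBS; concentration-response parameters came from normalized, curve-fitted qHTS data.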
On the % scale 0 is the no-effect control and ±100 the full control effect; potency means the concentration at half of the fitted maximal effect.

SMILES | Potency | activity change, negative = cytotoxicity
N#Cc1cccc(OCCCN2CCC(C(O)(c3ccccc3)c3ccccc3)CC2)c1 | active: 23.1 µM | 
COCCCNC(=O)C1CCN(c2nn3cc(-c4ccc(F)cc4)nc3s2)CC1 | inactive | 
COc1cc(/C=C/c2[nH]c(=O)[nH]c(=O)c2[N+](=O)[O-])ccc1OCCC(C)C | inactive | 
CCOC(=O)c1cnc(Cc2ccccc2)[nH]c1=O | inconclusive: 18.4 µM [rising, single point] | 
CC(=O)NC(c1cc(Cl)c2cccnc2c1O)C1CC1 (centres undefined) | active: 16.4 µM | 
Cc1ccc(C(=O)C2CCN(CC(=O)NC3CCCCC3)CC2)cc1 | active: 13 µM | 
O=C(O)c1ccc(Nc2nc3ccccc3nc2NS(=O)(=O)c2cccs2)cc1 | inconclusive: 6.51 µM [rising, partial curve] | 
O=C(CC1CCCCC1)N1CCCC(c2nc(-c3ccc(S(=O)(=O)N4CCCC4)cc3)no2)C1 (centres undefined) | active: 8.2 µM | 
CCOc1ccccc1NC(=O)c1cnn2c(C(F)F)cc(-c3ccccc3)nc12 | inactive | 
Cc1[nH]nc(SCC(=O)NCc2ccccc2)c1[N+](=O)[O-] | inconclusive: 14.6 µM [rising, partial curve, poor fit] | 
CCc1ccc(-n2c(Cc3ccccc3)nnc2SCc2nc(-c3cccs3)no2)cc1 | inconclusive: 29.1 µM [cytotoxic, single point] | 
CC(OC(=O)CCC(=O)c1cccs1)C(=O)Nc1ccc(Cl)cn1 (centres undefined) | inactive | 
Nc1c(-c2ccccc2)nc(Cl)nc1-c1ccccc1 | inconclusive: 23.1 µM [cytotoxic, partial curve] | 
C=CCn1c(CCCOc2ccc(Cl)cc2Cl)n[nH]c1=S | inactive | 
Cc1nn(-c2ccccc2)c(Cl)c1/C=C/C(=O)c1ccccc1 | inconclusive: 23.1 µM [cytotoxic, single point] | 
COc1ccc(C(=O)N2CCCC(C)(C(=O)NS(=O)(=O)C3CC3)C2)c(OC)c1 (centres undefined) | inactive | 
CCOCC(=O)N1CCN(c2ccc([N+](=O)[O-])cc2)CC1 | active: 18.4 µM | 
Cn1nc([N+](=O)[O-])nc1Sc1ccc(C(C)(C)C)cc1 | inconclusive: 18.4 µM [cytotoxic, single point] | 
CCc1c(C)nc2ncnn2c1N1CCC(C(=O)N2CCN(c3ccc(F)cc3)CC2)CC1 | inconclusive: 8.2 µM [cytotoxic, partial curve] | 
CC(=O)c1ccc(NC(=O)CN2CCN(CC(=O)Nc3ccc(C(C)=O)cc3)CC2)cc1 | inactive | 
CC(C)C(=O)Nc1ccc([N+](=O)[O-])c(C(F)(F)F)c1 | inconclusive: 20.6 µM [cytotoxic, single point] | 
O=C(Nc1ccc(S(=O)(=O)N2CCCC2)cc1)c1ccc([N+](=O)[O-])o1 | inconclusive: 29.1 µM [cytotoxic, single point] | 
Cc1cc(C)cc(-n2ncc3c2CCCC3NC(=O)c2cc(C)[nH]n2)c1 (centres undefined) | inconclusive: 9.2 µM [cytotoxic, partial curve] | 

SMILES | Potency | activity change, negative = cytotoxicity
Cc1ccc(/C=C/c2onc(C)c2S(=O)(=O)N2CCC(C(=O)NCC(C)c3ccccc3)CC2)cc1 (centres undefined) | inactive | 
O=C(NCCc1ccc(Cl)cc1)C1CCN(S(=O)(=O)N2CCC3(CC2)OCCO3)CC1 | inconclusive: 16.4 µM [cytotoxic, partial curve] | 
O=C(CSc1nnc(-c2ccccn2)n1Cc1ccccc1)N1CCCC1 | inactive | 
CCCCc1nnc(NC(=O)C(C)Sc2nc(O)c(Cc3ccccc3)c(=O)[nH]2)s1 (centres undefined) | inactive | 
COC(=O)C1=C(C)N(c2cccc(C)c2)C(=O)/C1=C\c1cccs1 | inconclusive: 9.2 µM [cytotoxic, partial curve, poor fit] | 
CC(=O)Nc1cccc(NC(=O)CSc2nc(=O)n(Cc3ccncc3)c3c2CCC3)c1 | inconclusive: 29.1 µM [rising, single point] | 
Cc1nn(CC(=O)Nc2ccc3c(c2)oc2ccccc23)c(=O)c2ccccc12 | inconclusive: 20.6 µM [cytotoxic, single point] | 
Cc1cccc(C)c1-n1nnnc1C(c1ccnc2ccccc12)N(C)Cc1ccccc1 (centres undefined) | inactive | 
CN(C)C(CNC(=O)c1cc(S(=O)(=O)N(C)c2ccc(F)cc2)ccc1Cl)c1cccs1 (centres undefined) | active: 4.11 µM | 
CCCCCn1c(-c2ccc(OC)c(OC)c2)nc2ccccc21 | inactive | 
CN(C)S(=O)(=O)c1cccc(N=c2scc(-c3ccc4c(c3)NC(=O)CO4)n2CC2CCCO2)c1 (centres undefined) | active: 16.4 µM | 
COc1ccc(NS(=O)(=O)c2ccc3[nH]c4c(c3c2)CCCC4)cc1Cl | inconclusive: 23.1 µM [cytotoxic, single point] | 
Cc1ccc(CN2C(=O)c3oc4ccc(C)cc4c(=O)c3C2c2ccc(O)cc2)cc1 (centres undefined) | inconclusive: 16.4 µM [rising, partial curve, poor fit] | 
CC(C)Oc1ccc(F)cc1-c1cc(C(=O)Nc2ccccc2)[nH]n1 | inactive | 
COc1cc(OC)c(NC(=O)Cn2c(=O)oc3cc(S(=O)(=O)N4CCCC4)ccc32)cc1Cl | inactive | 
C(=C\c1ccco1)/C1=NN(c2ccccc2)C(c2ccco2)C1 (centres undefined) | inconclusive: 32.6 µM [cytotoxic, partial curve, poor fit] | 
COc1ccccc1OCC(=O)Nc1ccc(N2CCCCC2)cc1 | inactive | 
Cc1cc(NC(=O)CCC(=O)N(Cc2ccco2)C2(C(=O)NC3CCCC3)CCCCC2)no1 | inconclusive: 23.1 µM [cytotoxic, partial curve, poor fit] | 
O=S(=O)(N(Cc1ccccc1)[C@@H](CO)Cc1ccccc1)N(Cc1ccccc1)[C@@H](CO)Cc1ccccc1 | inconclusive: 29.1 µM [cytotoxic, single point] | 
COCCn1c(C)cc(C(=O)COC(=O)c2ccc3c(c2)NC(=O)CS3)c1C | inconclusive: 13 µM [cytotoxic, partial curve] | 
Cc1ccc(CS(=O)Cc2ccc(C(=O)NC3CCCCC3)o2)cc1 (centres undefined) |  | inconclusive: -15.8%
COc1ccc(CN2CCN(c3ncnc4sc5c(c34)CC(C)CC5)CC2)cc1F (centres undefined) | inactive | 
Cc1sc2ncnc(SCC(=O)NCC3CCCO3)c2c1C (centres undefined) | inconclusive: 20.6 µM [rising, single point] | 

Part of the list above in order of molecular weight, ascending.
SMILES | Potency | activity change, negative = cytotoxicity
CCCCCn1c(-c2ccc(OC)c(OC)c2)nc2ccccc21 | inactive | 
Cc1cccc(C)c1-n1nnnc1C(c1ccnc2ccccc12)N(C)Cc1ccccc1 (centres undefined) | inactive | 
CC(=O)Nc1cccc(NC(=O)CSc2nc(=O)n(Cc3ccncc3)c3c2CCC3)c1 | inconclusive: 29.1 µM [rising, single point] | 
O=C(NCCc1ccc(Cl)cc1)C1CCN(S(=O)(=O)N2CCC3(CC2)OCCO3)CC1 | inconclusive: 16.4 µM [cytotoxic, partial curve] | 

Next part

SMILES | Potency | activity change, negative = cytotoxicity
COc1ccc(NCc2nnc(SCC#N)n2-c2ccccc2OC)cc1 | inconclusive: 23.1 µM [cytotoxic, partial curve] | 
O=C1CSC(=S)N1N=Cc1c(O)ccc2ccccc12 | inconclusive: 13 µM [cytotoxic, partial curve] | 
NS(=O)(=O)c1ccc(CCNS(=O)(=O)c2ccc3c(c2)NC(=O)CO3)cc1 | inconclusive: 13 µM [rising, single point] | 
Cc1cc(Cl)ccc1NC(=O)CN(c1ccccc1Br)S(C)(=O)=O | inactive | 
CS(=O)(=O)N1CCN(c2ccccc2NC(=S)NC(=O)c2cccs2)CC1 | inconclusive: 14.6 µM [cytotoxic, partial curve, poor fit] | 
COCOCCn1cc(CN2CCS(=O)(=O)N(Cc3ccc(-c4ccccc4)cc3)C(C(C)C)C2=O)nn1 (centres undefined) | inconclusive: 18.4 µM [cytotoxic, partial curve, poor fit] | 
CCOC(=O)c1c(CN2CCOCC2)n(-c2ccccc2)c2cc(Br)c(O)c(CN(C)C)c12 | inactive | 
COc1cc(Cl)c(C)cc1NC(=O)CNC(C)c1ccccc1OC (centres undefined) | inconclusive: 29.1 µM [cytotoxic, single point] | 
Cn1cc([N+](=O)[O-])c(C(=O)Nc2sc3c(c2C#N)CCC3)n1 | inconclusive: 23.1 µM [cytotoxic, partial curve, poor fit] | 
CC(=O)N1CCOc2ccc(S(=O)(=O)N(C)c3ccc(C)cc3)cc21 | inconclusive: 23.1 µM [cytotoxic, single point] | 
COc1ccccc1N1CCN(CCCNC(=O)c2cnn(-c3ccccc3)c2C2CCN(C(=O)OC(C)(C)C)CC2)CC1 | inactive | 
CN(Cc1cnccn1)C(=O)c1cc(COc2cccc(C(F)(F)F)c2)on1 | inactive | 
COc1ccc(N(C)S(=O)(=O)c2cccc(C(=O)Nc3cc(OC)ccc3OC)c2)cc1 | inconclusive: 10.3 µM [cytotoxic, partial curve] | 
CC(C)CCOc1ccc(C(=O)NCC(c2ccco2)N(C)C)cc1 (centres undefined) | inconclusive: 29.1 µM [rising, single point] | 
Cc1ccc(-n2nc(C)c(/C=N/NC(=O)c3cccs3)c2Cl)cc1 | inconclusive: 29.1 µM [cytotoxic, single point] | 
C=CCN(c1ccc(C(=O)NCCCn2ccnc2)cc1)S(C)(=O)=O | inconclusive: 29.1 µM [rising, single point] | 
Cc1ccc(C(=O)NCC(=O)NCc2cc(=O)n(C)c(=O)n2C)cc1C | inconclusive: 29.1 µM [rising, single point] | 
Cc1c(C(=O)Nc2nccs2)sc2nc(-c3cccs3)cc(C(F)(F)F)c12 | inconclusive: 8.2 µM [cytotoxic, partial curve] | 
CC(=NCCc1c(C)[nH]c2ccc(OC(F)(F)F)cc12)C1=C(O)CC(c2ccccc2)CC1=O (centres undefined) | inconclusive: 5.8 µM [cytotoxic, full curve] | 
COC(=O)/C(=C/c1cccnc1)NC(=O)c1ccccc1 | inactive | 
COc1ccc(Cc2c(O)nc(SCC(=O)c3ccc(OC)cc3)[nH]c2=O)cc1 | inconclusive: 20.6 µM [cytotoxic, single point] | 
Cc1c(C(=O)NC2CC2)oc2ccccc12 | inconclusive: 29.1 µM [rising, single point] | 
Oc1ccc(F)cc1-c1cc(-c2ccc3c(c2)OCCO3)n[nH]1 | inconclusive: 20.6 µM [cytotoxic, single point] | 

Entries of single compounds, looked up by structure:
`Cc1c(C(=O)Nc2nccs2)sc2nc(-c3cccs3)cc(C(F)(F)F)c12` reads Potency: inconclusive: 8.2 µM [cytotoxic, partial curve]
`Oc1ccc(F)cc1-c1cc(-c2ccc3c(c2)OCCO3)n[nH]1` reads Potency: inconclusive: 20.6 µM [cytotoxic, single point]
